In ChEMBL document CHEMBL4513141, “CO-ADD screening of NIH (USA) - Clinical Collection” (2021):
Some of the results follow. Results with a measured potency or affinity are listed apart.

tested on: Acinetobacter baumannii; settings: Concentration 20 uM; ASSAY_TEST Inhibition of Bacterial Growth; detection method Absorption (OD600); MEDIA CAMHB; plate type 384well; NBS; CORNING #3640; time 18 hr

Going from `COc1ccc2[nH]cc(CCN)c2c1` [5-METHOXYTRYPTAMINE] to `CN(C)CCc1c[nH]c2ccc(C[C@H]3COC(=O)N3)cc12` [ZOLMITRIPTAN], the Inhibition rises from 13.31% to 13.79%.

First: C[N+]1(CCC(C(N)=O)(c2ccccc2)c2ccccc2)CCCCC1.[Br-] [FENPIVERINIUM BROMIDE]
Second: C[N+]1(C)CCCC(OC(=O)C(O)(c2ccccc2)c2ccccc2)C1.[Br-] (stereo not drawn) [MEPENZOLATE BROMIDE]
The Inhibition of the first is lower: 18.01% for the first, 20.1% for the second.

Going from `COc1cc([C@@H]2c3cc4c(cc3[C@H](O)[C@H]3COC(=O)[C@H]23)OCO4)cc(OC)c1OC` [PODOFILOX] to `Fc1ccc([C@@H]2CCNC[C@H]2COc2ccc3c(c2)OCO3)cc1.O=C(O)/C=C\C(=O)O`, the Inhibition falls from 33.5% to -2.08%.

Going from `CN(C)CCOc1ccc(/C(=C(/CCCl)c2ccccc2)c2ccccc2)cc1.O=C(O)CC(O)(CC(=O)O)C(=O)O` [TOREMIFENE CITRATE] to `CN(C)C(=O)C(CCN1CCC(O)(c2ccc(Cl)cc2)CC1)(c1ccccc1)c1ccccc1.Cl` [LOPERAMIDE HYDROCHLORIDE], the Inhibition rises from 21.87% to 29.59%.

Compared with `COc1cc(N)c(Cl)cc1C(=O)NC1CN2CCC1CC2.Cl.O` (stereo not drawn) [ZACOPRIDE HYDROCHLORIDE], `CN1[C@@H]2CC[C@H]1C[C@@H](OC(=O)c1c[nH]c3ccccc13)C2.Cl` is higher in Inhibition: 8.33% for the first, 23.42% for the second.

Compared with `CC(=O)OC1C([N+]2(C)CCCCC2)C[C@H]2C3CC[C@H]4C[C@H](OC(C)=O)C([N+]5(C)CCCCC5)CC4(C)[C@H]3CCC12C.[Br-].[Br-]` (stereo partly drawn), `C[C@]12CCC(=O)C[C@@H]1CC[C@@H]1[C@@H]2CC[C@@]2(C)[C@H]1CC[C@]2(C)O` [MESTANOLONE] is lower in Inhibition: 19.67% for the first, 9.3% for the second.

Compared with `Cl.N=C(N)NC(=O)c1nc(Cl)c(N)nc1N.O.O` [AMILORIDE HYDROCHLORIDE], `Nc1nc(F)nc2c1ncn2[C@@H]1O[C@H](CO)[C@@H](O)[C@@H]1O` [FLUDARABINE] is lower in Inhibition: 11.89% for the first, 3.25% for the second.

Going from `CNC(=O)Oc1ccc2c(c1)[C@]1(C)CCN(C)C1N2C.CNC(=O)Oc1ccc2c(c1)[C@]1(C)CCN(C)C1N2C.O=S(=O)(O)O` (stereo partly drawn) to `COC(=O)C1=C(C)NC(C)=C(C(=O)OC)C1c1ccccc1[N+](=O)[O-]` [NIFEDIPINE], the Inhibition rises from 24.77% to 26.35%.

Compared with `CC(=O)[C@H]1CC[C@H]2[C@@H]3CCC4=CC(=O)CC[C@]4(C)[C@H]3CC[C@]12C` [PROGESTERONE], `C[C@]12CC[C@H]3[C@@H](CCC4=CC(=O)CC[C@@]43C)[C@@H]1CC[C@@H]2O` [TESTOSTERONE] is lower in Inhibition: 21.89% for the first, 8.83% for the second.

First: CCOC(=O)c1ncn2c1CN(C)C(=O)c1cc(F)ccc1-2 [FLUMAZENIL]
Second: CN1C(=O)CN=C(c2ccccc2)c2cc([N+](=O)[O-])ccc21 [NIMETAZEPAM]
The Inhibition of the first is lower: 13.44% for the first, 27.05% for the second.

Going from `C[C@]12CC[C@H](O)CC1=CC[C@@H]1[C@@H]2CC[C@]2(C)C(=O)CC[C@@H]12` [PRASTERONE] to `C=C1C[C@@H]2[C@H](CC[C@]3(C)C(=O)CC[C@@H]23)[C@@]2(C)C=CC(=O)C=C12` [EXEMESTANE], the Inhibition falls from 27.01% to 21.54%.

Going from `Cc1cc(NS(=O)(=O)c2ccc(N)cc2)no1` [SULFAMETHOXAZOLE] to `CCC1(c2ccc(N)cc2)CCC(=O)NC1=O` (stereo not drawn) [AMINOGLUTETHIMIDE], the Inhibition falls from 6.61% to 5.09%.

Compared with `C[C@H](CCC(=O)O)[C@H]1CC[C@H]2[C@@H]3C(=O)C[C@@H]4CC(=O)CC[C@]4(C)[C@H]3CC(=O)[C@]12C` [DEHYDROCHOLIC ACID], `C[C@]12CCC(=O)C=C1CC[C@@H]1[C@@H]2CC[C@@]2(C)[C@H]1CC[C@]2(C)O` [METHYLTESTOSTERONE] is higher in Inhibition: 5.61% for the first, 30.83% for the second.

Going from `C#CCN(C)[C@H](C)Cc1ccccc1.Cl` [SELEGILINE HYDROCHLORIDE] to `C[N+]1(C)CCN(c2ccccc2)CC1.[I-]` [DIMETHYLPHENYLPIPERAZINIUM IODIDE], the Inhibition rises from 9.56% to 27.94%.

First: CC(C)CC(N(C)C)C1(c2ccc(Cl)cc2)CCC1 (stereo not drawn) [SIBUTRAMINE]
Second: CN(C)CCC=C1c2ccccc2CCc2ccccc21.Cl [AMITRIPTYLINE HYDROCHLORIDE]
The Inhibition of the first is lower: 8.16% for the first, 29.85% for the second.

Going from `C[C@]12CC[C@H]3[C@@H](CCC4=CC(=O)CC[C@@H]43)[C@@H]1CC[C@@H]2O` [NANDROLONE] to `C#C[C@]1(OC(C)=O)CC[C@H]2[C@@H]3CCC4=CC(=O)CC[C@@H]4[C@H]3CC[C@@]21C` [NORETHINDRONE ACETATE], the Inhibition rises from 9.8% to 20.02%.

Compared with `CC(C)(C)NCC(O)c1cc(O)cc(O)c1.O=S(=O)(O)O` (stereo not drawn), `Cl.NCC(O)c1ccc(O)c(O)c1` (stereo not drawn) is higher in Inhibition: 7.9% for the first, 28.77% for the second.

Going from `Cl.O=C1CC2(CCCC2)CC(=O)N1CCCCN1CCN(c2ncccn2)CC1` [BUSPIRONE HYDROCHLORIDE] to `COC(=O)N1CCN(C(=O)Cc2ccc(Cl)c(Cl)c2)C(CN2CCCC2)C1.O=C(O)/C=C/C(=O)O` (stereo not drawn), the Inhibition falls from 28.1% to 10.06%.

Going from `CN1[C@@H](CC(=O)c2ccccc2)CCC[C@H]1C[C@H](O)c1ccccc1.Cl` [LOBELINE HYDROCHLORIDE] to `NC(=O)C[S+]([O-])C(c1ccccc1)c1ccccc1` (stereo not drawn) [MODAFINIL], the Inhibition falls from 13.32% to 6.81%.

First: Br.CN1[C@@H]2CC(OC(=O)[C@H](CO)c3ccccc3)C[C@H]1[C@@H]1O[C@@H]12.O.O.O (stereo partly drawn)
Second: CN1[C@@H]2CC[C@H]1CC(OC(=O)C(CO)c1ccccc1)C2 (stereo partly drawn)
The Inhibition of the first is higher: 28.47% for the first, 6.07% for the second.

Compared with `CS(=O)(=O)O.O=C(O[C@@H]1C[C@@H]2C[C@H]3C[C@H](C1)N2CC3=O)c1c[nH]c2ccccc12`, `C=C(C)CN1CC[C@]23c4c5ccc(O)c4O[C@H]2c2[nH]c4ccccc4c2C[C@@]3(O)C1C5.Cl.O` is higher in Inhibition: 9.89% for the first, 13.71% for the second.

First: CN/C(=N\CCSCc1nc[nH]c1C)NC#N [CIMETIDINE]
Second: Cn1c(=O)c2nc[nH]c2n(C)c1=O.O [THEOPHYLLINE]
The Inhibition of the first is higher: 19.7% for the first, 9.61% for the second.

Going from `O=C1CN=C(c2ccccc2)c2cc([N+](=O)[O-])ccc2N1` [NITRAZEPAM] to `CNC1=Nc2ccc(Cl)cc2C(c2ccccc2)=[N+]([O-])C1` [CHLORDIAZEPOXIDE], the Inhibition rises from 19.66% to 27.16%.

Going from `Cl.c1ccc2c(CC3=NCCN3)cccc2c1` [NAPHAZOLINE HYDROCHLORIDE] to `Cc1ncc2n1-c1ccc(Cl)cc1C(c1ccccc1F)=NC2.Cl` [MIDAZOLAM HYDROCHLORIDE], the Inhibition falls from 22.4% to 6.77%.

Compared with `NS(=O)(=O)c1cc(C2(O)NC(=O)c3ccccc32)ccc1Cl` (stereo not drawn) [CHLORTHALIDONE], `Cl.O.Oc1cc2c(cc1O)[C@H]1c3ccccc3CN[C@@H]1CC2` is higher in Inhibition: 6.16% for the first, 9.31% for the second.

First: COc1cc(CNC(=O)CCCC/C=C\C(C)C)ccc1O [ZUCAPSAICIN]
Second: CS(=O)(=O)Nc1ccc(Cc2noc(-c3ccc4[nH]cc(CCN)c4c3)n2)cc1.O.O
The Inhibition of the first is lower: 26.82% for the first, 28.37% for the second.

First: O=C(O[C@@H]1Cc2c(O)cc(O)cc2O[C@@H]1c1cc(O)c(O)c(O)c1)c1cc(O)c(O)c(O)c1 [EPIGALOCATECHIN GALLATE]
Second: CC1CCC[C@H](O)CCCCCc2cc(O)cc(O)c2C(=O)O1 (stereo partly drawn)
The Inhibition of the first is higher: 29.27% for the first, 9.95% for the second.

Compared with `CCN(C(C)=O)c1cccc(-c2ccnc3c(C#N)cnn23)c1` [ZALEPLON], `Nc1nc2ccc(Cl)cc2c2nc(-c3ccco3)nn12` [CGS-15943] is higher in Inhibition: 3.56% for the first, 17.29% for the second.

First: COc1ccc2[nH]cc(C3=CCNCC3)c2c1.COc1ccc2[nH]cc(C3=CCNCC3)c2c1.O=C(O)CCC(=O)O
Second: CC[C@@H]1/C=C/C=C/C[C@H](C)[C@@H](O)[C@](C)(O)C(=O)[C@H](C)[C@@H](O)[C@H](C)C(=O)[C@H](C)[C@@H](O)[C@H](C)/C=C/C(=O)O[C@H]2[C@@H](C)[C@@H](CC1)O[C@@]1(CC[C@@H](C)[C@@H](C[C@H](C)O)O1)[C@@H]2C
The Inhibition of the first is higher: 33.42% for the first, 27.64% for the second.

Going from `NCCc1ccccn1` to `c1cncc([C@@H]2CCCN2)c1` [NORNICOTINE], the Inhibition rises from 8.39% to 21.79%.

Going from `C[C@]12Cc3c[nH]nc3C[C@@H]1CC[C@@H]1[C@@H]2CC[C@@]2(C)[C@H]1CC[C@]2(C)O` [STANOZOLOL] to `CC(C)[C@]12O[C@H]1[C@@H]1O[C@]13[C@]1(O[C@H]1C[C@H]1C4=C(CC[C@@]13C)C(=O)OC4)[C@@H]2O` [TRIPTOLIDE], the Inhibition rises from 6.15% to 17.86%.

`Cc1c(O)c(=O)ccn1C` [DEFERIPRONE] gave an Inhibition of 25.07%.
